Laboratory results reported in the supplement of paper PMC10849652.
This is one part of the list.

The chains behind the UniProt entries cited, without tags or fusion partners. Where a name states a change or a piece, a line headed by the entry shows the natural chain unless it says otherwise.
UniProt P48634: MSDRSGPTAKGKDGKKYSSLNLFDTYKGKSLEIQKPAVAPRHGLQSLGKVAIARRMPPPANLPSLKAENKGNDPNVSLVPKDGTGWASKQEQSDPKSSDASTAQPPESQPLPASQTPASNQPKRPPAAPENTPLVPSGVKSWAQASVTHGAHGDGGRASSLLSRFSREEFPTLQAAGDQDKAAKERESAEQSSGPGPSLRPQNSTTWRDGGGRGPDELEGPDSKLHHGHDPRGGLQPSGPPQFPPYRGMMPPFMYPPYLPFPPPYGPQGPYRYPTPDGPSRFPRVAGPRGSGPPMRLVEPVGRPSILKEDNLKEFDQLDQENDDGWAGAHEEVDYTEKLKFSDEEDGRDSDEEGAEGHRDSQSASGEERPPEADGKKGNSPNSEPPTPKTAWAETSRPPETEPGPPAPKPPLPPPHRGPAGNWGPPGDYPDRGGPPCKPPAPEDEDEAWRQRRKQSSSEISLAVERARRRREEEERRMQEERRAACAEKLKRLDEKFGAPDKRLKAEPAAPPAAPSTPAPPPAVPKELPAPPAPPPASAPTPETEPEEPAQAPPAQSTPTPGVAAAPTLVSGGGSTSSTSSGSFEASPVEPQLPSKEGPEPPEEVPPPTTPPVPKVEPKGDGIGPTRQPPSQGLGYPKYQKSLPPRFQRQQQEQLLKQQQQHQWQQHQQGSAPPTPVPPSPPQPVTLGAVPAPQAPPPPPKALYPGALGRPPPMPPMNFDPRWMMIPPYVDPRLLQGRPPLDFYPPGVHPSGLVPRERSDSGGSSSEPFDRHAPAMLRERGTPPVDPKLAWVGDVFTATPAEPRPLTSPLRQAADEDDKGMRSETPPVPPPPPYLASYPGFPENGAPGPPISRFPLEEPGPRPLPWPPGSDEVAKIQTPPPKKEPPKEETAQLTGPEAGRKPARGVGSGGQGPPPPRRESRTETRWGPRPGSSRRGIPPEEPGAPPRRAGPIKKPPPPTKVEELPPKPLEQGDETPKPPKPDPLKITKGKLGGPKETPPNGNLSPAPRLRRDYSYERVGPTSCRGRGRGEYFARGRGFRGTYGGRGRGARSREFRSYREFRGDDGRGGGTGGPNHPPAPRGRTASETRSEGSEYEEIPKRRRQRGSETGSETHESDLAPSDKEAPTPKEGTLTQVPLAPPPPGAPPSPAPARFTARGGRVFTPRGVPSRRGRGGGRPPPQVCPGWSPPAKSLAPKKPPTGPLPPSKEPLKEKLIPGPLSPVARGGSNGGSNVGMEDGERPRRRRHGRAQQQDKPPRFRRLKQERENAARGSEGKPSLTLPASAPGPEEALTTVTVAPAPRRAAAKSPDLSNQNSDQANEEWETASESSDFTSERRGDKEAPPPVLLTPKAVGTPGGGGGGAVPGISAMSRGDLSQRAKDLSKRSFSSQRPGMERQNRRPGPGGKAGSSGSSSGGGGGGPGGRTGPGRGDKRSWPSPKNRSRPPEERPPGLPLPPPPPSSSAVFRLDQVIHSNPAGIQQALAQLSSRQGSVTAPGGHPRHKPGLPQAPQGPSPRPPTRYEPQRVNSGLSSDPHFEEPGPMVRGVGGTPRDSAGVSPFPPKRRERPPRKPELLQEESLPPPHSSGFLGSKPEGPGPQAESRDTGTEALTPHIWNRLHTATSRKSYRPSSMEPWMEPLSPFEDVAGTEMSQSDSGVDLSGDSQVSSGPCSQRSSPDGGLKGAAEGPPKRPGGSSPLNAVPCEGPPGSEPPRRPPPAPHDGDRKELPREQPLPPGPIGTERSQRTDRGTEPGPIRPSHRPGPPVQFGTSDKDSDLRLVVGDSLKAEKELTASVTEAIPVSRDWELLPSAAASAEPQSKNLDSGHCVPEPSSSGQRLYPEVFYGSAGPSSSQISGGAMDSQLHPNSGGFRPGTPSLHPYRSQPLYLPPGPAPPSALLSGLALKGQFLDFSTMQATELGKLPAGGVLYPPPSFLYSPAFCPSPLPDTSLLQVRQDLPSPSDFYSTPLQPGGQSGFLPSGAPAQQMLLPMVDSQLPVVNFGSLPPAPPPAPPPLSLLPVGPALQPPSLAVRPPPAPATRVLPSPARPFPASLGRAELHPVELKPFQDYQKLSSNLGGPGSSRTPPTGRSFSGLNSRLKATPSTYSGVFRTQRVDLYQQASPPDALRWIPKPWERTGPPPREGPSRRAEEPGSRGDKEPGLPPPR
UniProt Q6P2P2: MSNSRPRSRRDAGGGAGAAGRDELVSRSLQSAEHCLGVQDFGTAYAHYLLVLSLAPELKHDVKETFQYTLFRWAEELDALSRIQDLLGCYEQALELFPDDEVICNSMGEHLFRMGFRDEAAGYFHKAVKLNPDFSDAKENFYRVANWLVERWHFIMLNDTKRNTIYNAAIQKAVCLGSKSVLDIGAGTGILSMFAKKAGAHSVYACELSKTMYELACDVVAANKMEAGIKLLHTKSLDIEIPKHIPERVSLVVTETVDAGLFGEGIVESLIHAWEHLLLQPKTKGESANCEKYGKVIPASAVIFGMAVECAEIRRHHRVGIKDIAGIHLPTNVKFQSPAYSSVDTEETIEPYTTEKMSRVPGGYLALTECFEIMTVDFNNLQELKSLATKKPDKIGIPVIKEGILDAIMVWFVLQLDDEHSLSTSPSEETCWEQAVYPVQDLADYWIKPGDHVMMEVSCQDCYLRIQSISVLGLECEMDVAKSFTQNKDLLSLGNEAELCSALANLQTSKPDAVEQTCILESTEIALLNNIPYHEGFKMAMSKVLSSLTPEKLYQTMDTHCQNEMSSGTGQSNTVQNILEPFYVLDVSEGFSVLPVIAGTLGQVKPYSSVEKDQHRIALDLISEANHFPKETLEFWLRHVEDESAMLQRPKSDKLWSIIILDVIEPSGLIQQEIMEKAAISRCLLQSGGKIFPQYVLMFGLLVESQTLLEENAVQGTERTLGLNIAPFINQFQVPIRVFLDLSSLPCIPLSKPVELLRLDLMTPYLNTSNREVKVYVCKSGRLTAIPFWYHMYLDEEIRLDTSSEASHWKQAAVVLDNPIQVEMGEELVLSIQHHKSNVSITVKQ
UniProt P48454, whole entry, looked up: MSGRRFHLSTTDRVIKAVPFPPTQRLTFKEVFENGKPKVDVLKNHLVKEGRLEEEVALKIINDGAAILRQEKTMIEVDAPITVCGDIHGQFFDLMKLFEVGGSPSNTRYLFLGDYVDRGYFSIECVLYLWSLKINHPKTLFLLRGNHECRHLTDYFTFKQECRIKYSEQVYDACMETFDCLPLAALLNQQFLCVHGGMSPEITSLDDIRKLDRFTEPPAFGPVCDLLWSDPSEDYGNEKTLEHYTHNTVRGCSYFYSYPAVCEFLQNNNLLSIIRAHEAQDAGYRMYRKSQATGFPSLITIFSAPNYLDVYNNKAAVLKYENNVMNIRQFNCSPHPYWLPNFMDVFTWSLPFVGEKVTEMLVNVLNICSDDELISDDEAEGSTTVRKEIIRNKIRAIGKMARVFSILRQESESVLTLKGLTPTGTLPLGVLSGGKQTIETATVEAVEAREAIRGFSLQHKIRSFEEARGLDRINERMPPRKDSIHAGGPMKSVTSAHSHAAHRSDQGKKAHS
UniProt P60891: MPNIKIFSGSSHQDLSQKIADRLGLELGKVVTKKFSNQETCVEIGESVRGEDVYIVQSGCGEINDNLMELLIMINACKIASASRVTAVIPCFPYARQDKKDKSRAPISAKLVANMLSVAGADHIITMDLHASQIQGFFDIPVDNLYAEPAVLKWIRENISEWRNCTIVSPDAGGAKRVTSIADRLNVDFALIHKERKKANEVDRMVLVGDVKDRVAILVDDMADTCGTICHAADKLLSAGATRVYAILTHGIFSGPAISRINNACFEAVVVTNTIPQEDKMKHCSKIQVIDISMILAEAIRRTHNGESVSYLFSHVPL
UniProt P67775, whole entry, looked up: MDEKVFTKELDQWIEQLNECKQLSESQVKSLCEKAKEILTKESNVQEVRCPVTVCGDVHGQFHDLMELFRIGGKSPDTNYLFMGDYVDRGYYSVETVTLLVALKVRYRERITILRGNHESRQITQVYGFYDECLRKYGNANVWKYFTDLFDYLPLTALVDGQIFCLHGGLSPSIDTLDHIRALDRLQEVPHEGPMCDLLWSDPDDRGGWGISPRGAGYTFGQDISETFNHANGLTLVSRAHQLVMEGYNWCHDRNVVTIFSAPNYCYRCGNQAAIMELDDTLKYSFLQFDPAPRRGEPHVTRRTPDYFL
UniProt Q6IN85: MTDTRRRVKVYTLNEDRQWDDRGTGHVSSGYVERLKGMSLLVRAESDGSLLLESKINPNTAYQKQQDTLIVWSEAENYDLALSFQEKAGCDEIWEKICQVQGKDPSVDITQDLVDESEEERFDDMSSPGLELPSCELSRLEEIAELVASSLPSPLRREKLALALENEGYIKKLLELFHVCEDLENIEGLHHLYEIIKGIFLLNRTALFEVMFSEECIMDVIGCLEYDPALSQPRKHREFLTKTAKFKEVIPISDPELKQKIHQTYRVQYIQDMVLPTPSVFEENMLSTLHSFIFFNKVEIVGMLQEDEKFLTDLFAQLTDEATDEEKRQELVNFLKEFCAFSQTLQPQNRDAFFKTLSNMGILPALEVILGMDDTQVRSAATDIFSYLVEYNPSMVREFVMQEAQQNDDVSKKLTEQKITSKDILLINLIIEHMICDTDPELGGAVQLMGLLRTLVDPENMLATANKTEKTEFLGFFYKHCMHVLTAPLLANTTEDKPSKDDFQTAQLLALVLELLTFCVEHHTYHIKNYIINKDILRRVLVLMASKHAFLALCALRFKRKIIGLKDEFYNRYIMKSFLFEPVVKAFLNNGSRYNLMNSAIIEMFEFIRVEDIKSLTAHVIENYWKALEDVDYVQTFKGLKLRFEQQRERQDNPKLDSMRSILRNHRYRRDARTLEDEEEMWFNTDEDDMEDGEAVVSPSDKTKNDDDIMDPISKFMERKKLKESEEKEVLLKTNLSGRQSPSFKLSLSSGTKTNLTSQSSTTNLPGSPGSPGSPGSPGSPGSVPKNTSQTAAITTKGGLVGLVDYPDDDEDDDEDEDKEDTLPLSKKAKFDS
UniProt P30041: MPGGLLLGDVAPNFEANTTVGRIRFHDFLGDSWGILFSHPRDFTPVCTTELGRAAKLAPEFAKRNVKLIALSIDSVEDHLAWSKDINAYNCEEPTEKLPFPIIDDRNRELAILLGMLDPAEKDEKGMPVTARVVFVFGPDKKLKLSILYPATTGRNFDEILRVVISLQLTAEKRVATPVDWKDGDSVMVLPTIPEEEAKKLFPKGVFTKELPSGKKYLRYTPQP
UniProt Q9NY27: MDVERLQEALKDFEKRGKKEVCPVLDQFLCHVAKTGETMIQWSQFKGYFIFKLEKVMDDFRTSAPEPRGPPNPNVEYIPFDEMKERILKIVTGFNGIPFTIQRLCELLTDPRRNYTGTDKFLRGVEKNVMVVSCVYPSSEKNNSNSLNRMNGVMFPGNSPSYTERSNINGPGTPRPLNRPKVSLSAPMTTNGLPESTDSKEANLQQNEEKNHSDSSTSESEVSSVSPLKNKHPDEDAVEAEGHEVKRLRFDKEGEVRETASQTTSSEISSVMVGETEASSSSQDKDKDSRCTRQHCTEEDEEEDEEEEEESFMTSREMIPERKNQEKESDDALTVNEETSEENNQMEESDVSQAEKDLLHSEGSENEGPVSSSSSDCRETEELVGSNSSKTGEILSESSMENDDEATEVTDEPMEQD
UniProt P53041: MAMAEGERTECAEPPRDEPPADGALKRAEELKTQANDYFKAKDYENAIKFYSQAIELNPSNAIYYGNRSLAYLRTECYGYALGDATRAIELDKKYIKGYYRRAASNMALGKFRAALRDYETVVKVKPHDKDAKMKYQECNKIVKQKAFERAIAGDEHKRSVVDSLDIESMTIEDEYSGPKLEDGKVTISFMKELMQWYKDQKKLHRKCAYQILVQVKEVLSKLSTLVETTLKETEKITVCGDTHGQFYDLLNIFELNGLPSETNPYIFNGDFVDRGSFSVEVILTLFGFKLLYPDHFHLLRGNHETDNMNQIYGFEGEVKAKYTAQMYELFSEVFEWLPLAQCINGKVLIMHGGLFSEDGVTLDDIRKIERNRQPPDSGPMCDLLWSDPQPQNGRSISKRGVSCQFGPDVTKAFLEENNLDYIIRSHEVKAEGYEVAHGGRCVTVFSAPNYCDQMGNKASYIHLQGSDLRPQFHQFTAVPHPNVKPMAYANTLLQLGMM
UniProt P63151: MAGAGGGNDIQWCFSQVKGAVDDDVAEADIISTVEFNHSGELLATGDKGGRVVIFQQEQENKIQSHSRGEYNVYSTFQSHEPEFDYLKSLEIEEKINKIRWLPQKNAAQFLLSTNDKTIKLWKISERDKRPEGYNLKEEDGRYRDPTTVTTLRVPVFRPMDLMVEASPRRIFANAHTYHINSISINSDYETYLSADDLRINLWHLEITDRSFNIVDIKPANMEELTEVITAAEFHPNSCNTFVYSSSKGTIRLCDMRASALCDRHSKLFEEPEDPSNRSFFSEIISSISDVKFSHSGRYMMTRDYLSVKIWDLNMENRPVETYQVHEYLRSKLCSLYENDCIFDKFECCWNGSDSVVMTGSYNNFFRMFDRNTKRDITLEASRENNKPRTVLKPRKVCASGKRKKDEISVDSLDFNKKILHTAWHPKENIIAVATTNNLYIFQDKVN

Assays:
Assay in all cases: log2 fold change, soluble protein after heating vs DMSO (PISA); higher = thermal stabilisation; K562 cells, 10 uM, 30 min; active = over 0.2 and 3.5 SD of the protein, either way, in both replicates (recomputed)
[1] = compound: COC1=CC=C(C=C1)CN2C=CC3=C2C=C(C=C3)C(=O)NO
Procedure, shortened: (§1)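 For each measurement, 10 μM compound was applied for 30 min to K562 cells at 2×10^6 cells/mL. Aliquots were heated for 3 min across 48°C-58°C, pooled, and extracted in PBS with 0.5% NP-40 at 4°C; the supernatant after 21,000xg for 90 min was soluble protein. This was quantified by TMTpro 16plex LC-MS/MS with channel sums equalised, and thermal stability was reported relative to control samples from duplicates, on a log2 fold-change scale.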

[2] = compound: CON(C)C(=O)N1N=C(c2cc(F)ccc2F)S[C@@]1(CCCN)c1ccccc1 [filanesib]
Procedure, shortened: as §1

[3] = compound: CO[C@H]1C[C@@H]2CC[C@@H](C)[C@@](O)(O2)C(=O)C(=O)N2CCCC[C@H]2C(=O)O[C@H]([C@H](C)C[C@@H]2CC[C@H](n3cnnn3)[C@H](OC)C2)CC(=O)[C@H](C)/C=C(\C)[C@@H](O)[C@@H](OC)C(=O)[C@H](C)C[C@H](C)/C=C/C=C/C=C/1C [zotarolimus]
Procedure, shortened: as §1

[4] = compound: COc1cc(C(=O)O)ccc1NC(=O)[C@@H]1N[C@@H](CC(C)(C)C)[C@](C#N)(c2ccc(Cl)cc2F)[C@H]1c1cccc(Cl)c1F [idasanutlin]
Procedure, shortened: as §1

[5] = compound: COc1cc(Nc2ncc3c(n2)-c2ccc(Cl)cc2C(c2c(F)cccc2OC)=NC3)ccc1C(=O)O [alisertib]
Procedure, shortened: as §1

[6] = compound: COc1cc2nc(-c3cc(F)ccc3O)nc(N[C@@H]3CNC[C@H]3C(C)(C)O)c2cc1OC
Procedure, shortened: as §1

[7] = compound: COc1cc2ncnc(Nc3ccc(F)c(Cl)c3)c2cc1OCCCN1CCOCC1 [gefitinib]
Procedure, shortened: as §1

[8] = compound: COc1cccc2cc(-c3nc([C@H]4CC[C@H](C(=O)O)CC4)n4ncnc(N)c34)[nH]c12
Procedure, shortened: as §1

[9] = compound: CS(=O)(=O)CCNCc1ccc(-c2ccc3ncnc(Nc4ccc(OCc5cccc(F)c5)c(Cl)c4)c3c2)o1 [lapatinib]
Procedure, shortened: as §1

[10] = compound: CS(=O)(=O)N1CCN(Cc2cc3nc(-c4cccc5[nH]ncc45)nc(N4CCOCC4)c3s2)CC1 [pictilisib]
Procedure, shortened: as §1

[11] = compound: CS(=O)(=O)c1ccc(-c2cnc(N)c(C(=O)Nc3ccccc3)n2)cc1
Procedure, shortened: as §1

[12] = compound: C[C@@H](Oc1cc(-c2cnn(C3CCNCC3)c2)cnc1N)c1c(Cl)ccc(F)c1Cl [crizotinib]
Procedure, shortened: as §1

[13] = compound: C[C@@H]1COCCN1C2=NC(=NC(=C2)C3(CC3)S(=O)(=O)C)C4=C5C=CNC5=CC=C4
Procedure, shortened: as §1

[14] = compound: C[C@H](C1=CC=C(C=C1)C(=O)NC2=C3C=CNC3=NC=C2)N
Procedure, shortened: as §1

[15] = compound: C[C@H](Nc1ncnc2nc[nH]c12)c1cc2cccc(Cl)c2c(=O)n1-c1ccccc1 [duvelisib]
Procedure, shortened: as §1

[16] = compound: Cc1cc(Nc2cc(CN3CCOCC3)c3nc(C)c(Cc4ccc(Cl)cc4F)n3n2)n[nH]1 [gandotinib]
Procedure, shortened: as §1

[17] = compound: Cc1cc(Nc2cc(N3CCN(C)CC3)nc(Sc3ccc(NC(=O)C4CC4)cc3)n2)n[nH]1 [tozasertib]
Procedure, shortened: as §1

[18] = compound: Cc1cc(SCc2sc(-c3ccc(C(F)(F)F)cc3)nc2C)ccc1OCC(=O)O
Procedure, shortened: as §1

[19] = compound: Cc1ccc(-n2nc(C(C)(C)C)cc2NC(=O)Nc2ccc(OCCN3CCOCC3)c3ccccc23)cc1 [doramapimod]
Procedure, shortened: as §1

[20] = compound: Cc1ccc(C(=O)N(CCCN)[C@@H](c2nc3cc(Cl)ccc3c(=O)n2Cc2ccccc2)C(C)C)cc1 [ispinesib]
Procedure, shortened: as §1

Measured: log2 fold change

PRRC2B (UniProt Q5JSZ5)
inactive: [1] -0.087 | [2] 0.015 | [3] -0.089 | [4] 0.056 | [5] -0.059 | [6] -0.048 | [7] -0.008 | [8] 0.117 | [9] 0.023 | [10] -0.006 | [11] -0.024 | [12] -0.013 | [13] -0.057 | [14] 0.074 | [15] 0.059 | [16] -0.024 | [17] -0.05 | [18] -0.049 | [19] 0.017 | [20] -0.053

PPP1R7 (UniProt Q15435)
inactive: [1] -0.032 | [2] -0.08 | [3] -0.017 | [4] -0.065 | [5] -0.039 | [6] 0.008 | [7] -0.002 | [8] 0.026 | [9] -0.038 | [10] -0.008 | [11] 0.078 | [12] 0.041 | [13] -0.006 | [14] -0.043 | [15] 0.016 | [16] 0.017 | [17] 0.018 | [18] 0.01 | [19] -0.024 | [20] 0.008

PPP1R10 (UniProt Q96QC0)
inactive: [1] -0.114 | [2] 0.367 | [3] -0.04 | [4] 0.173 | [5] -0.109 | [6] 0.072 | [7] -0.054 | [8] -0.066 | [9] 0.091 | [10] -0.04 | [11] -0.112 | [12] -0.083 | [13] -0.199 | [14] 0.266 | [15] -0.063 | [16] 0.182 | [17] -0.091 | [18] -0.018 | [19] 0.186 | [20] -0.061

PRRC2A (UniProt P48634)
inactive: [1] -0.079 | [2] 0.253 | [3] 0.002 | [4] 0.102 | [5] -0.022 | [6] -0.033 | [7] 0.004 | [8] -0.018 | [9] 0.058 | [10] 0.014 | [11] -0.029 | [12] 0.042 | [13] -0.259 | [14] 0.176 | [15] -0.077 | [16] 0.208 | [17] -0.041 | [18] -0.025 | [19] 0.096 | [20] -0.045

PRMT9 (UniProt Q6P2P2)
inactive: [1] -0.09 | [2] -0.122 | [3] 0.018 | [4] -0.049 | [5] 0.001 | [6] 0.115 | [7] 0.044 | [8] 0.055 | [9] 0.013 | [10] 0.124 | [11] 0.197 | [12] -0.07 | [13] 0.474 | [14] -0.014 | [15] 0.013 | [16] -0.154 | [17] -0.024 | [18] -0.012 | [19] 0.01 | [20] 0.076

PPP1R2 (UniProt P41236)
inactive: [1] 0.05 | [2] -0.022 | [3] -0.002 | [4] 0.005 | [5] -0.008 | [6] -0.023 | [7] -0.03 | [8] 0.091 | [9] -0.004 | [10] 0.009 | [11] 0.031 | [12] 0.02 | [13] -0.061 | [14] -0.042 | [15] 0.041 | [16] -0.004 | [17] -0.04 | [18] -0.075 | [19] -0.006 | [20] -0.026

PPP3CC isoform 3 (UniProt P48454)
inactive: [1] 0.002 | [2] -0.059 | [3] -0.015 | [4] -0.099 | [5] -0.058 | [6] 0.009 | [7] 0.005 | [8] 0.06 | [9] -0.037 | [10] 0.037 | [11] 0.054 | [12] -0.076 | [13] 0.106 | [14] -0.039 | [15] 0.025 | [16] 0.075 | [17] 0.035 | [18] 0.024 | [19] 0.017 | [20] -0.05

PRPS1 (UniProt P60891)
inactive: [1] -0.055 | [2] 0.044 | [3] -0.003 | [4] -0.016 | [5] -0.107 | [6] 0.102 | [7] -0.072 | [8] 0.05 | [9] -0.023 | [10] 0.176 | [11] 0.003 | [12] 0.016 | [13] 0.034 | [14] 0.014 | [15] 0.001 | [16] -0.022 | [17] 0.014 | [18] 0.007 | [19] 0.044 | [20] 0.028

PPP2CA (UniProt P67775)
inactive: [1] -0.016 | [2] 0.008 | [3] 0.01 | [4] -0.037 | [5] -0.029 | [6] -0.019 | [7] -0.008 | [8] 0.001 | [9] -0.019 | [10] -0.015 | [11] 0.015 | [12] 0.001 | [13] 0.009 | [14] -0.11 | [15] -0.017 | [16] -0.027 | [17] 0.025 | [18] -0.027 | [19] -0.07 | [20] 0.065

PPP4R3A (UniProt Q6IN85)
inactive: [1] -0.036 | [2] 0.029 | [3] 0.018 | [4] -0.086 | [5] -0.027 | [6] 0.024 | [7] 0.006 | [8] 0.097 | [9] 0.12 | [10] -0.028 | [11] 0.038 | [12] 0.021 | [13] -0.011 | [14] -0.048 | [15] 0.017 | [16] -0.003 | [17] 0.027 | [18] -0.022 | [19] -0.005 | [20] -0.008

PRKRIP1 (UniProt Q9H875)
inactive: [1] -0.018 | [2] -0.011 | [3] -0.086 | [4] 0.004 | [5] -0.044 | [6] 0.058 | [7] 0 | [8] 0.031 | [9] 0.035 | [10] 0.035 | [11] -0.135 | [12] 0.058 | [13] -0.002 | [14] 0.009 | [15] 0.028 | [16] 0.204 | [17] -0.048 | [18] -0.048 | [19] 0.04 | [20] 0.018

PPP2R1A (UniProt P30153)
inactive: [1] -0.024 | [2] -0.101 | [3] 0.024 | [4] -0.046 | [5] -0.014 | [6] -0.025 | [7] 0.004 | [8] 0.008 | [9] -0.03 | [10] 0.055 | [11] 0.024 | [12] 0.022 | [13] 0.067 | [14] -0.026 | [15] 0.031 | [16] -0.016 | [17] 0.011 | [18] 0.024 | [19] -0.016 | [20] 0.067

Looked up one by one from above (2):
PPP4R3A (UniProt Q6IN85)
inactive: [1] -0.036 | [2] 0.029 | [3] 0.018 | [4] -0.086 | [5] -0.027 | [6] 0.024 | [7] 0.006 | [8] 0.097 | [9] 0.12 | [10] -0.028 | [11] 0.038 | [12] 0.021 | [13] -0.011 | [14] -0.048 | [15] 0.017 | [16] -0.003 | [17] 0.027 | [18] -0.022 | [19] -0.005 | [20] -0.008

PRPS1 (UniProt P60891)
inactive: [1] -0.055 | [2] 0.044 | [3] -0.003 | [4] -0.016 | [5] -0.107 | [6] 0.102 | [7] -0.072 | [8] 0.05 | [9] -0.023 | [10] 0.176 | [11] 0.003 | [12] 0.016 | [13] 0.034 | [14] 0.014 | [15] 0.001 | [16] -0.022 | [17] 0.014 | [18] 0.007 | [19] 0.044 | [20] 0.028

Going on with the list:

PRDX6 (UniProt P30041)
inactive: [1] -0.027 | [2] -0.058 | [3] 0.019 | [4] -0.013 | [5] -0.044 | [6] 0.03 | [7] 0.039 | [8] 0.022 | [9] -0.051 | [10] 0.025 | [11] 0.034 | [12] 0.022 | [13] 0.039 | [14] -0.029 | [15] 0.024 | [16] -0.021 | [17] 0.001 | [18] -0.003 | [19] -0.006 | [20] 0.026

PPP4R2 (UniProt Q9NY27)
inactive: [1] 0.039 | [2] 0.013 | [3] 0.022 | [4] -0.065 | [5] -0.011 | [6] -0.079 | [7] -0.004 | [8] 0.027 | [9] 0.089 | [10] -0.055 | [11] -0.015 | [12] 0.064 | [13] 0 | [14] -0.099 | [15] -0.041 | [16] 0.001 | [17] -0.02 | [18] -0.076 | [19] -0.061 | [20] 0.039

PPP5C (UniProt P53041)
inactive: [1] -0.027 | [2] 0.008 | [3] 0.018 | [4] -0.022 | [5] -0.052 | [6] 0.034 | [7] -0.021 | [8] 0.079 | [9] 0.001 | [10] 0.008 | [11] 0.054 | [12] 0.013 | [13] 0.041 | [14] -0.042 | [15] 0.026 | [16] -0.032 | [17] -0.007 | [18] -0.01 | [19] -0.037 | [20] 0.028

PPP2R2A isoform 2 (UniProt P63151)
inactive: [1] -0.048 | [2] -0.049 | [3] -0.057 | [4] -0.014 | [5] -0.045 | [6] 0.011 | [7] 0.001 | [8] 0.058 | [9] 0 | [10] 0.018 | [11] 0.046 | [12] 0.002 | [13] 0.002 | [14] -0.058 | [15] 0.036 | [16] -0.042 | [17] -0.03 | [18] -0.035 | [19] -0.025 | [20] 0.016
